In the supplement of paper PMC9254222:
In all, about 1,100 compounds were measured (“Renilla luciferase signal (cell health) relative to plate median”: median about 0.97, highest 2% from about 1.6 on). The list shows a part of the results, in another mix than the full data.

System: HEK293T (UBE3A T485A transfected, BAR Wnt reporter)
Test: Renilla luciferase signal (cell health) relative to plate median (fold (linear ratio)); higher = higher Renilla signal
Conditions: 24 h
Procedure, shortened: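 Chemicals were robotically dosed at 0.01–100 uM for 24 h onto HEK293T cells, starting four hours after transfection with a BAR firefly luciferase Wnt reporter, TK-Renilla and an expression plasmid. The cells had been plated at 4500 cells/well in DMEM with 10% FBS at 37°C and 5% CO2. Following a Dual-Glo luciferase readout, the firefly/Renilla ratio served as the Wnt activity measure and raw Renilla as the cell health measure, both median-centred on each plate. Each value is the mean of four biological replicates.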

| SMILES | Renilla luciferase signal (concentration: 0.01 uM) | Renilla luciferase signal (concentration: 0.1 uM) | Renilla luciferase signal (concentration: 1 uM) | Renilla luciferase signal (concentration: 10 uM) | Renilla luciferase signal (concentration: 100 uM) |
| --- | --- | --- | --- | --- | --- |
| CC(C)=CC1C(C(=O)OCc2coc(Cc3ccccc3)c2)C1(C)C (stereo not given) [Resmethrin] | 1.12 | 1.04 | 0.974 | 1.01 | 0.166 |
| CCOC(=O)C(O)(c1ccc(Cl)cc1)c1ccc(Cl)cc1 [Chlorobenzilate] | – | 0.927 | 0.837 | 0.929 | 1.26 |
| O=S(=O)([O-])C(F)(F)C(F)(F)C(F)(F)C(F)(F)F.[K+] | – | 1.06 | 0.981 | 1.11 | 1.1 |
| CC(C)N1C(=O)N(c2ccccc2)CSC1=NC(C)(C)C [Buprofezin] | 0.892 | 0.933 | 1.04 | 1.24 | 0.318 |
| COP(=O)(OC)OC(Br)C(Cl)(Cl)Br (stereo not given) [Naled] | 1.25 | 1.18 | 1.07 | 1.08 | 0.0181 |
| CC(C)(C)OOC(C)(C)CCC(C)(C)OOC(C)(C)C [2,5-Dimethyl-2,5-di-(tert-butylperoxy)hexane] | – | 1.01 | 0.999 | 1.02 | 1.35 |
| CC(Oc1ccc(Cl)cc1Cl)C(=O)O (stereo not given) [Dichlorprop] | 0.843 | 0.959 | 0.959 | 1.04 | 1.6 |
| CC(C)(C)CC(C)(C)c1ccc(O)cc1 [4-(1,1,3,3-Tetramethylbutyl)phenol] | – | 0.923 | 0.949 | 0.944 | 1.12 |
| CCNc1nc(Cl)nc(NC(C)(C)C#N)n1 [Cyanazine] | 1.14 | 0.998 | 1.15 | 0.955 | 0.93 |
| O=C(O)COc1ccc(Cl)cc1Cl [2,4-Dichlorophenoxyacetic acid] | – | – | – | – | 1.69 |
| CCCCN(CC)c1c([N+](=O)[O-])cc(C(F)(F)F)cc1[N+](=O)[O-] [Benfluralin] | 1.12 | 0.838 | 0.99 | 0.917 | 1.31 |
| COC(=O)NC(=S)Nc1ccccc1NC(=S)NC(=O)OC [Thiophanate-methyl] | 1.37 | 0.913 | 1 | 1.01 | 0.274 |
| COc1ccccc1N [2-Anisidine] | – | 1.14 | 1.06 | 1.24 | 1.34 |
| O=P(Oc1ccccc1)(Oc1ccccc1)Oc1ccccc1 [Triphenyl phosphate] | – | 0.815 | 0.778 | 0.825 | 1.02 |
| O=C(NC(=O)c1c(F)cccc1F)Nc1ccc(OC(F)(F)C(F)OC(F)(F)F)c(Cl)c1 (stereo not given) [Novaluron] | 1.08 | 0.982 | 0.998 | 0.935 | 1.48 |
| CCCCCCCCOC(=O)c1ccc(C(=O)OCCCCCCCC)c(C(=O)OCCCCCCCC)c1 [Trioctyl trimellitate] | – | 1.21 | 1.15 | 1.12 | 1.36 |
| CC1(C(=O)Nc2ccc(O)c(Cl)c2Cl)CCCCC1 [Fenhexamid] | 1.18 | 0.958 | 1.03 | 1.15 | 0.372 |
| COc1cc(Cl)c(OC)cc1Cl [Chloroneb] | – | – | – | – | 1.91 |
| Clc1ccccc1Cl [1,2-Dichlorobenzene] | – | 1.14 | 0.945 | 1.05 | 1.27 |
| CC#Cc1cc(C)nc(Nc2ccccc2)n1 [Mepanipyrim] | – | 1.04 | 1.02 | 1.23 | 0.891 |
| COc1cc(OC)nc(Sc2cccc(Cl)c2C(=O)[O-])n1.[Na+] [Pyrithiobac-sodium] | – | – | – | – | 1.69 |

| SMILES | Renilla luciferase signal (concentration: 0.01 uM) | Renilla luciferase signal (concentration: 0.1 uM) | Renilla luciferase signal (concentration: 1 uM) | Renilla luciferase signal (concentration: 10 uM) | Renilla luciferase signal (concentration: 100 uM) |
| --- | --- | --- | --- | --- | --- |
| CCOC(=O)CC(SP(=O)(OC)OC)C(=O)OCC (stereo not given) [Malaoxon] | 1.23 | 1.3 | 1.17 | 1.1 | 1.49 |
| CCCCN(CCCC)SN(C)C(=O)Oc1cccc2c1OC(C)(C)C2 [Carbosulfan] | – | 0.808 | 0.906 | 0.941 | 1.01 |
| CCOP(=O)(SC(C)CC)N1CCSC1=O (stereo not given) [Fosthiazate] | – | – | – | – | 1.7 |
| N#CC(Br)Br [Dibromoacetonitrile] | – | 1.11 | 1.09 | 1.07 | 1.21 |
| CC(C)(C)C(O)C(Oc1ccc(Cl)cc1)n1cncn1 (stereo not given) [Triadimenol] | 1.01 | 0.885 | 0.844 | 0.906 | 0.699 |
| CCSC(=O)N1CCCCCC1 [Molinate] | 0.998 | 0.899 | 0.905 | 1.04 | 1.8 |
| CC(C)[C@H](C(=O)O[C@H](C#N)c1cccc(Oc2ccccc2)c1)c1ccc(Cl)cc1 [Esfenvalerate] | 0.932 | 0.969 | 0.846 | 0.908 | 0.397 |
| CC(C)N(Cc1ccccc1)C(=O)C(C)(C)C [Butam] | – | 0.847 | 0.802 | 0.836 | 0.707 |
| ClC1=C(Cl)C(Cl)(Cl)C(Cl)=C1Cl [Hexachlorocyclopentadiene] | – | 1.04 | 1.07 | 0.983 | 0.136 |
| Nc1ccc(Cl)cc1 [4-Chloroaniline] | – | 0.986 | 0.954 | 1.06 | 1.17 |
| Cc1cccc(N)c1 [3-Methylaniline] | – | 1.5 | 1.28 | 1.32 | 1.52 |
| N#Cc1nn(-c2c(Cl)cc(C(F)(F)F)cc2Cl)c(N)c1S(=O)C(F)(F)F (stereo not given) [Fipronil] | 1.07 | 0.955 | 0.873 | 0.957 | 0.8 |
| C[N+](C)(C)CC1CO1.[Cl-] (stereo not given) [N,N,N-Trimethyl(oxiran-2-yl)methanaminium chloride] | – | 1.28 | 1.21 | 1.25 | 1.26 |
| Clc1ccc(C(c2ccc(Cl)cc2)C(Cl)Cl)cc1 | – | 0.925 | 0.872 | 0.929 | 1.19 |
| COC(=O)c1ccccc1N [Methyl 2-aminobenzoate] | – | 1.09 | 1.07 | 1.11 | 1.51 |
| OCCN(CCO)CCO [Triethanolamine] | – | 0.958 | 0.924 | 1.03 | 0.807 |
| N#Cc1c(Cl)cccc1Cl [Dichlobenil] | 0.873 | 0.853 | 1.03 | 0.992 | 1.96 |
| CC(C)NC(=O)N1CC(=O)N(c2cc(Cl)cc(Cl)c2)C1=O [Iprodione] | 1.01 | 0.786 | 0.924 | 0.884 | 1.29 |
| CC1(C)C(C(=O)OC(C#N)c2cccc(Oc3ccccc3)c2)C1(C)C (stereo not given) [Fenpropathrin] | 1.12 | 1.01 | 1.15 | 1.2 | 0.293 |
| CCOP(=S)(OCC)SCCSCC [Disulfoton] | 0.695 | 0.81 | 0.813 | 0.759 | 1.16 |
| CNC(=O)Oc1cccc2c1OC(C)(C)O2 [Bendiocarb] | 0.702 | 1.06 | 0.942 | 0.927 | 0.968 |

Copied from the list:
Renilla luciferase signal (concentration: 0.01 uM), CCSC(=O)N1CCCCCC1 [Molinate] reads 0.998
Renilla luciferase signal (concentration: 0.1 uM), C[N+](C)(C)CC1CO1.[Cl-] (stereo not given) [N,N,N-Trimethyl(oxiran-2-yl)methanaminium chloride] reads 1.28
Renilla luciferase signal (concentration: 10 uM), Clc1ccccc1Cl [1,2-Dichlorobenzene] reads 1.05
